Experimental data as given in PMC3871820.
No constants are given. Whether binding was seen depends on the method and setting.

By UniProt entry, the sequences of proteins in these tests, tags left out.
UniProt Q9FTA2: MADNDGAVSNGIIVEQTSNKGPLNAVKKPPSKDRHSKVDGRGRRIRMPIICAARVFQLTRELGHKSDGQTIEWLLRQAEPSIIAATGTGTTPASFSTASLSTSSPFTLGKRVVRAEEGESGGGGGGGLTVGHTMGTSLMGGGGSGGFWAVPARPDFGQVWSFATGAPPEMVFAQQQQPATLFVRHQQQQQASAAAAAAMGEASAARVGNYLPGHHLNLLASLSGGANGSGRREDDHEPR
UniProt Q9C7G4: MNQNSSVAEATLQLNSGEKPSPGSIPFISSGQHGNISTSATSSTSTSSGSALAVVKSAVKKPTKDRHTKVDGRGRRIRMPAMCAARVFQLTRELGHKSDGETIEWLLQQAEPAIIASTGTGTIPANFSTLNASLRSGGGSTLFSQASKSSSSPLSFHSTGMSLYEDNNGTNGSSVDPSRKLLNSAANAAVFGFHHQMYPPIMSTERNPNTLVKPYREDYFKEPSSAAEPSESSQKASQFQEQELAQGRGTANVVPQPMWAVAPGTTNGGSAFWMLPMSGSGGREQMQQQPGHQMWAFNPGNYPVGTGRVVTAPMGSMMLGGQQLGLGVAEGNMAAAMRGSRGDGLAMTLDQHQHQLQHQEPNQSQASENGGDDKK
UniProt Q9FMX2: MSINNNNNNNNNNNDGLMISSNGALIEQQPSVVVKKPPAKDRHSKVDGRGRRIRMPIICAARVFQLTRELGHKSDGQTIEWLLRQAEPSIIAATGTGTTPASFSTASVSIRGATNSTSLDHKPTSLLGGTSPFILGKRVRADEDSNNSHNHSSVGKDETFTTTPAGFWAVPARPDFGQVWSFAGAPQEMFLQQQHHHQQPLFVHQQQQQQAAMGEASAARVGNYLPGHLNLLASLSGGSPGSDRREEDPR
UniProt O64647: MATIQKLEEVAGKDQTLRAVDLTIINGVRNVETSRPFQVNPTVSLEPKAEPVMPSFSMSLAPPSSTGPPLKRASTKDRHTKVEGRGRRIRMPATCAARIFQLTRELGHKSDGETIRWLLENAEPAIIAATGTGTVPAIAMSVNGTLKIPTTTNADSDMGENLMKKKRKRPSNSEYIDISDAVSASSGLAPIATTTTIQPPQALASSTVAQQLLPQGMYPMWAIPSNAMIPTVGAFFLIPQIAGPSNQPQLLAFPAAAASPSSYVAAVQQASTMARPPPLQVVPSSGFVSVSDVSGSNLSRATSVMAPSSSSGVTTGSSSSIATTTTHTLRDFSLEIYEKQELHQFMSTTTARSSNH

B1: TCP1 (protein, UniProt Q9FYG7 1-359)
chain: MSSSTNDYNDGNNNGVYPLSLYLSSLSGHQDIIHNPYNHQLKASPGHMVSAVPESLIDYMAFKSNNVVNQQGFEFPEVSKEIKKVVKKDRHSKIQTAQGIRDRRVRLSIGIARQFFDLQDMLGFDKASKTLDWLLKKSRKAIKEVVQAKNLNNDDEDFGNIGGDVEQEEEKEEDDNGDKSFVYGLSPGYGEEEVVCEATKAGIRKKKSELRNISSKGLGAKARGKAKERTKEMMAYDNPETASDITQSEIMDPFKRSIVFNEGEDMTHLFYKEPIEEFDNQESILTNMTLPTKMGQSYNQNNGILMLVDQSSSSNYNTFLPQNLDYSYDQNPFHDQTLYVVTDKNFPKGKVWIQDSFVN
B2: TCP12 (protein, UniProt A0AQW4 1-356)
chain: MFPSLDTNGYDLFDPFIPHQTTMFPSFITHIQSPNSHHHYSSPSFPFSSDFLESFDESFLINQFLLQQQDVAANVVESPWKFCKKLELKKKNEKCVDGSTSQEVQWRRTVKKRDRHSKICTAQGPRDRRMRLSLQIARKFFDLQDMLGFDKASKTIEWLFSKSKTSIKQLKERVAASEGGGKDEHLQVDEKEKDETLKLRVSKRRTKTMESSFKTKESRERARKRARERTMAKMKMRLFETSETISDPHQETREIKITNGVQLLEKENKEQEWSNTNDVHMVEYQMDSVSIIEKFLGLTSDSSSSSIFGDSEECYTSLSSVRGMSTPREHNTTSIATVDEEKSPISSFSLYDYLCY
B3: TCP18 (protein, UniProt A1YKT1 1-433)
chain: MNNNIFSTTTTINDDYMLFPYNDHYSSQPLLPFSPSSSINDILIHSTSNTSNNHLDHHHQFQQPSPFSHFEFAPDCALLTSFHPENNGHDDNQTIPNDNHHPSLHFPLNNTIVEQPTEPSETINLIEDSQRISTSQDPKMKKAKKPSRTDRHSKIKTAKGTRDRRMRLSLDVAKELFGLQDMLGFDKASKTVEWLLTQAKPEIIKIATTLSHHGCFSSGDESHIRPVLGSMDTSSDLCELASMWTVDDRGSNTNTTETRGNKVDGRSMRGKRKRPEPRTPILKKLSKEERAKARERAKGRTMEKMMMKMKGRSQLVKVVEEDAHDHGEIIKNNNRSQVNRSSFEMTHCEDKIEELCKNDRFAVCNEFIMNKKDHISNESYDLVNYKPNSSFPVINHHRSQGAANSIEQHQFTDLHYSFGAKPRDLMHNYQNMY

Target: T1, TCP13 (Arabidopsis thaliana) (UniProt Q9S7W5)
T1 sequence: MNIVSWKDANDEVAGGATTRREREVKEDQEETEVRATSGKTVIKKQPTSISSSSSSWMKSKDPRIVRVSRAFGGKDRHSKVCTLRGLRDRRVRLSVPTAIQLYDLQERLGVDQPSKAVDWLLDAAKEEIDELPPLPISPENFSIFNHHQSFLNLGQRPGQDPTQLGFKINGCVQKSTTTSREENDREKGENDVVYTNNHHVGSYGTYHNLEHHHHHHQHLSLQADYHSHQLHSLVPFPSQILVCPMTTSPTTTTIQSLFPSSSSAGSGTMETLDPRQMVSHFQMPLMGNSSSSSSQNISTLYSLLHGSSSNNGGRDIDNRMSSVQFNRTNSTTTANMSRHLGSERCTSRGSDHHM
Test: two-hybrid; matrix-based GAL4 yeast two-hybrid by mating (baits in PJ69-4alpha, preys in PJ69-4a); selection on SD-Leu-Trp-Ade or SD-Leu-Trp-His with 5 and 10 mM 3-amino-1,2,4-triazole; scored after 5 days at 30 °C; BD baits of TCP1, 2, 4, 10, 12, 18, 20 and 24 excluded for auto-activation; positive only if reproducible with at least two selection markers

Q: With B1 as the binder, how does the binding read?
A: no binding

Q: For B2, which binding is on record?
A: no binding

Q: B3 was tested. Which binding did it give?
A: no binding

Target: TCP15 (Arabidopsis thaliana) (UniProt Q9C9L2)
Test: as above

Q: Which binding does the source give for B1 here?
A: no binding

Q: How did the binding turn out when B2 was run?
A: no binding

Q: How did the binding turn out when B3 was run?
A: no binding

Target: TCP21 (Arabidopsis thaliana) (UniProt Q9FTA2)
Test: as above

Q: How did the binding turn out when B1 was run?
A: no binding

Q: Which binding does the source give for B2 here?
A: no binding

Q: How did the binding turn out when B3 was run?
A: no binding

Target: TCP22 (Arabidopsis thaliana) (UniProt Q9C7G4)
Test: as above

Q: Which binding does the source give for B1 here?
A: no binding

Q: With B2 as the binder, how does the binding read?
A: no binding

Q: With B3 as the binder, how does the binding read?
A: no binding

Target: T2, TCP3 (Arabidopsis thaliana) (UniProt Q9MAH8)
T2 sequence: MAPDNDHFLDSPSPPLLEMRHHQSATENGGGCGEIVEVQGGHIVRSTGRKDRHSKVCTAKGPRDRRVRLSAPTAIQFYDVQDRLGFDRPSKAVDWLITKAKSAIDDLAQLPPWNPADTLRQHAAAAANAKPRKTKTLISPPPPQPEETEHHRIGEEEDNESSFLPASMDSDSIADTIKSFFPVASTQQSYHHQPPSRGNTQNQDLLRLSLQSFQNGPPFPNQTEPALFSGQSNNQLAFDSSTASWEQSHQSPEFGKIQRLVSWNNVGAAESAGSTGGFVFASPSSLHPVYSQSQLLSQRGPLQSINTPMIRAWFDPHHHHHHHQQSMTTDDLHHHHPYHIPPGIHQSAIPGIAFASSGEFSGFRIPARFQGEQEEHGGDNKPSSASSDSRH
Test: as above

Q: With B1 as the binder, how does the binding read?
A: no binding

Q: With B2 as the binder, how does the binding read?
A: no binding

Q: B3 was tested. Which binding did it give?
A: no binding

Target: T3, TCP5 (Arabidopsis thaliana) (UniProt Q9FME3)
T3 sequence: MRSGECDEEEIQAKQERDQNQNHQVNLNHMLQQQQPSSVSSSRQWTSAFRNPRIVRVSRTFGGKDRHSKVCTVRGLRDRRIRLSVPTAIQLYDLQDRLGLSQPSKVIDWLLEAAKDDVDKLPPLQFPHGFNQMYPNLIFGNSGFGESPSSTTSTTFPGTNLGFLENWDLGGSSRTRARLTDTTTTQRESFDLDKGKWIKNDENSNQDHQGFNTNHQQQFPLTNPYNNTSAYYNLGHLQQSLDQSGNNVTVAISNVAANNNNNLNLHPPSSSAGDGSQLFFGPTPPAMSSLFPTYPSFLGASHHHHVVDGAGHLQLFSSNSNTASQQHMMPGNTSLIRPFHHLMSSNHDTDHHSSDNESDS
Test: as above

Q: Which binding does the source give for B1 here?
A: no binding

Q: For B2, which binding is on record?
A: no binding

Q: How did the binding turn out when B3 was run?
A: no binding

Target: TCP7 (Arabidopsis thaliana) (UniProt Q9FMX2)
Test: as above

Q: B1 was tested. Which binding did it give?
A: no binding

Q: Which binding does the source give for B2 here?
A: no binding

Q: How did the binding turn out when B3 was run?
A: no binding

Target: TCP9 (Arabidopsis thaliana) (UniProt O64647)
Test: as above

Q: For B1, which binding is on record?
A: no binding

Q: With B2 as the binder, how does the binding read?
A: no binding

Q: B3 was tested. Which binding did it give?
A: no binding
